Laboratory results: the M2OR odorant receptor database
The list shows a part of the results, in another mix than the full data. Calls are pooled over several reports, among them a noisy single-well screen. The list shows a part of the results.

Amino acid sequences for entries named in this document (tags omitted). Chains listed by the source or under a name are the forms on record and can include a tag or linker.
UniProt Q924X8, as listed by the source: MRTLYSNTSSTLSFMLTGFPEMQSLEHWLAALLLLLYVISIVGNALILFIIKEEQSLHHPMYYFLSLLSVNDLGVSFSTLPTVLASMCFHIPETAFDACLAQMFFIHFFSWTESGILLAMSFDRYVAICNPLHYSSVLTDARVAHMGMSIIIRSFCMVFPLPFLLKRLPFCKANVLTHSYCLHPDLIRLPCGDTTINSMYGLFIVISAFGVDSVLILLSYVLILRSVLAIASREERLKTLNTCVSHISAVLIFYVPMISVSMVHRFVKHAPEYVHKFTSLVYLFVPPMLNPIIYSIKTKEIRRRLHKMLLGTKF
UniProt Q9R0K2, as listed by the source: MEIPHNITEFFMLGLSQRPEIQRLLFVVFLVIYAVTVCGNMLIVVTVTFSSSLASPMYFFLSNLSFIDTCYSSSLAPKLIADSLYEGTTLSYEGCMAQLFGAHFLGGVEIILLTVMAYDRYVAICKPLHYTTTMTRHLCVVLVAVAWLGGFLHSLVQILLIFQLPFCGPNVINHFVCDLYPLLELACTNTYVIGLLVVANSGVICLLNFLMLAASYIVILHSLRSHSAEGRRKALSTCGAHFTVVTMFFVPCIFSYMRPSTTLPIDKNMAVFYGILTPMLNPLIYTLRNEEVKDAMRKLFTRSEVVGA
UniProt Q9WVD7, as listed by the source: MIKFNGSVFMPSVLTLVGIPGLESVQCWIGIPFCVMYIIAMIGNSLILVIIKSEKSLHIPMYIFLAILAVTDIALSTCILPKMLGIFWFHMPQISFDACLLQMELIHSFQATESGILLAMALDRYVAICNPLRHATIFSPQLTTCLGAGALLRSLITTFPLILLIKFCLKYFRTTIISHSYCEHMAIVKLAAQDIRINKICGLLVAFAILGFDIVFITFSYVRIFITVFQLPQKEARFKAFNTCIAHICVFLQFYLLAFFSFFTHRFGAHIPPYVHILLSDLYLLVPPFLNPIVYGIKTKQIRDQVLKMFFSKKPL
UniProt Q9WVD9, as listed by the source: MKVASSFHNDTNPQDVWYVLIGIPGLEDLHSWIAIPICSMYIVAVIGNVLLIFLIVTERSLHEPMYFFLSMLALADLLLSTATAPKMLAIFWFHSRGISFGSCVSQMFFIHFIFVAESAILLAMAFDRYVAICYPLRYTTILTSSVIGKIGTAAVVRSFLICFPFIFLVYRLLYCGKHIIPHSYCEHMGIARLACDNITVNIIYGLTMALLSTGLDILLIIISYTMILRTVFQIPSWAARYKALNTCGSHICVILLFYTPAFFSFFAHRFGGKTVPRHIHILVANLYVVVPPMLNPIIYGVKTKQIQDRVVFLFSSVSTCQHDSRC

What was measured:
Conditions in all cases: stereoisomer not certain
UniProt Q8VGZ7 = target: T1, UniProt Q8VGZ7
T1 sequence (whole entry): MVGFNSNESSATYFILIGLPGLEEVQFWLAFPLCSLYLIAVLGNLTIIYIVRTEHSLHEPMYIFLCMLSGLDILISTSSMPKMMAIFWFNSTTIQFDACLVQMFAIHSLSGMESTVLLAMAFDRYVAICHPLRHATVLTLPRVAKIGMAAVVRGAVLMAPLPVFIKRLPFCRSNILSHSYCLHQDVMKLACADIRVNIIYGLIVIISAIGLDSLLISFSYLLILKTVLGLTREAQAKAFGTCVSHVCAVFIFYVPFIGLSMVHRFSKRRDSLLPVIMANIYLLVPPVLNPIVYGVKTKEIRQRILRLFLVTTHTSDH
Procedure, shortened: (§1)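 Assay methods differ from source to source, frequently being transient luciferase assays in mammalian cell lines. For each receptor–molecule pair, the label responsive (active) applies when the original authors judged the measured signal statistically different from baseline, and non-responsive (inactive) applies otherwise.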

UniProt Q8VH10 = target: T2, UniProt Q8VH10
T2 sequence (whole entry): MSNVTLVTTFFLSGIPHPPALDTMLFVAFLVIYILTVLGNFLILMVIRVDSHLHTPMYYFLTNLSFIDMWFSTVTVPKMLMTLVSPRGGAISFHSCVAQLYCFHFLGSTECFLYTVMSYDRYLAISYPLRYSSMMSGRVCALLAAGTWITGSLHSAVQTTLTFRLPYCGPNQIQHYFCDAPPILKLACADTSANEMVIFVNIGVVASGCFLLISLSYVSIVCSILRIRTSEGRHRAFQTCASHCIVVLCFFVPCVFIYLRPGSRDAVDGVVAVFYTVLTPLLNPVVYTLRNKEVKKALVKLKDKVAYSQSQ
Procedure, shortened: as §1

UniProt Q8VH16 = target: T3, UniProt Q8VH16
T3 sequence (whole entry): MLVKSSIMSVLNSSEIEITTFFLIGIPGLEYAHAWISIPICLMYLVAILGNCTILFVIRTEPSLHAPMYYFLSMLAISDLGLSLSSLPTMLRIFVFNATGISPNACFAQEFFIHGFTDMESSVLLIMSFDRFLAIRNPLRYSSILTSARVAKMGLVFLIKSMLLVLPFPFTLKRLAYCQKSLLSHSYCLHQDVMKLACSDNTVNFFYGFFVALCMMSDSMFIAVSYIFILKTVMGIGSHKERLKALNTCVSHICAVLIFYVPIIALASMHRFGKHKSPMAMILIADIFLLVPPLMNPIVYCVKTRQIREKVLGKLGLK
Procedure, shortened: as §1

UniProt Q8VH20 = target: T4, UniProt Q8VH20
T4 sequence (whole entry): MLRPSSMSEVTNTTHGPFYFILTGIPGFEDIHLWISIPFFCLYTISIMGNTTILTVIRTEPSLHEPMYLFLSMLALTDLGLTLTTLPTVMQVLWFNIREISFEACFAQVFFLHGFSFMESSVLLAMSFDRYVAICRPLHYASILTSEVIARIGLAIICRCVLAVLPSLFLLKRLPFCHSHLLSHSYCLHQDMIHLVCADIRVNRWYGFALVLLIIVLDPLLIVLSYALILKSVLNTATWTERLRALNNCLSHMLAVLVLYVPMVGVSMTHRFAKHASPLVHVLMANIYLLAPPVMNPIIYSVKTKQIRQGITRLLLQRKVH
Procedure, shortened: as §1

UniProt Q8VH21 = target: T5, UniProt Q8VH21
T5 sequence (whole entry): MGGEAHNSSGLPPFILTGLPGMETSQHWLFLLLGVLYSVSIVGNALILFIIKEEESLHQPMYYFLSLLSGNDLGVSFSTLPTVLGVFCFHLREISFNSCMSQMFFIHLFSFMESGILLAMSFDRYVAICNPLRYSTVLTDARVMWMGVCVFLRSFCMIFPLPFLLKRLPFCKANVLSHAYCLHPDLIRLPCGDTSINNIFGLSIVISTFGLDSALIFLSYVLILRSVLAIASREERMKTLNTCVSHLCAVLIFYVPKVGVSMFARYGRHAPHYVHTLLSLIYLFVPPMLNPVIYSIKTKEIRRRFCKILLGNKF
Procedure, shortened: as §1

UniProt Q924H8 = target: T6, UniProt Q924H8
T6 sequence (whole entry): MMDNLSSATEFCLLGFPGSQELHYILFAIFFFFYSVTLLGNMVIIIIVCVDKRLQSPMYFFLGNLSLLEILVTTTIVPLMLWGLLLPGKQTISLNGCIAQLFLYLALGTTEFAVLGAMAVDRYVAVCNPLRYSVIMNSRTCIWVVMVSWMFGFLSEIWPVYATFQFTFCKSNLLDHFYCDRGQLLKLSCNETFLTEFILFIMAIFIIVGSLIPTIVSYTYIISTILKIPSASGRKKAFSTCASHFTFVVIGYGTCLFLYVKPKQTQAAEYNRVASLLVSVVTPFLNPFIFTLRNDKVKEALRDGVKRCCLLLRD
Procedure, shortened: as §1

UniProt Q924X8 = target: UniProt Q924X8
Procedure, shortened: as §1

UniProt Q99NH4 = target: T7, UniProt Q99NH4
T7 sequence (whole entry): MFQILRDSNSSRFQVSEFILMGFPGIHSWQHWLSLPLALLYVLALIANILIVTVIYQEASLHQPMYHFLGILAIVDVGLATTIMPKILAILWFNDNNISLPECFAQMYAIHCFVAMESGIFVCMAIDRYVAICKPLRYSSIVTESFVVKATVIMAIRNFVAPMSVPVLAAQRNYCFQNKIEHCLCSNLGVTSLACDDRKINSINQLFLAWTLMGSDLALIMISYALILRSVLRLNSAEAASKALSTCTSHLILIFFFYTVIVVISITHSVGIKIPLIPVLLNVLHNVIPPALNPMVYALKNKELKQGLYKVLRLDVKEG
Procedure, shortened: as §1

UniProt Q9EPN9 = target: T8, UniProt Q9EPN9
T8 sequence (whole entry): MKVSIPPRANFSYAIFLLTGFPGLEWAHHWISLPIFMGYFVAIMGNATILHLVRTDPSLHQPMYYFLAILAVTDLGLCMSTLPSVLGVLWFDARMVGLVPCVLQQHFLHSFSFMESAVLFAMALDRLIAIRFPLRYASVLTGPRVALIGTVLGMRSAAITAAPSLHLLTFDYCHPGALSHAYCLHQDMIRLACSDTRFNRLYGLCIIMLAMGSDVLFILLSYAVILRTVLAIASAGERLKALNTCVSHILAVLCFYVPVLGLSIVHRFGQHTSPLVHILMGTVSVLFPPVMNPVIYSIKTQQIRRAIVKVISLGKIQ
Procedure, shortened: as §1

UniProt Q9R0K2 = target: UniProt Q9R0K2
Procedure, shortened: as §1

UniProt Q9WU86 = target: T9, UniProt Q9WU86
T9 sequence (whole entry): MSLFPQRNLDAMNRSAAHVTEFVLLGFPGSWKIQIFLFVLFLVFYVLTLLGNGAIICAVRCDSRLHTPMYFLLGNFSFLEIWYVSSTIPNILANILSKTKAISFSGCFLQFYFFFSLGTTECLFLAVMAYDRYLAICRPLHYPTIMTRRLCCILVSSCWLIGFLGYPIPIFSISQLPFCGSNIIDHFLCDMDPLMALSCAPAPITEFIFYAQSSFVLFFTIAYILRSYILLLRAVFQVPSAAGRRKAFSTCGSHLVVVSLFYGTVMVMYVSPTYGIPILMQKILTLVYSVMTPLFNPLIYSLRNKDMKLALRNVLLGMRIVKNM
Procedure, shortened: as §1

UniProt Q9WU94 = target: T10, UniProt Q9WU94
T10 sequence (whole entry): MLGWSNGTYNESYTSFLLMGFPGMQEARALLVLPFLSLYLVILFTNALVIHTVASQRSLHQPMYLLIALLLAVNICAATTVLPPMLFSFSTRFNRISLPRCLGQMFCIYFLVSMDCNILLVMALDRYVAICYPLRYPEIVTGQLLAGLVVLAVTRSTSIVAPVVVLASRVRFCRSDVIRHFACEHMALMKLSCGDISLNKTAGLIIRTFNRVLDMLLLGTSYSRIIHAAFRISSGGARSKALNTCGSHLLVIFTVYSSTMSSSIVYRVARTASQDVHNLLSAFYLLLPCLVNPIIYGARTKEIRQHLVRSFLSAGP
Procedure, shortened: as §1

UniProt Q9WVD7 = target: UniProt Q9WVD7
Procedure, shortened: as §1

UniProt Q9WVD9 = target: UniProt Q9WVD9
Procedure, shortened: as §1

UniProt Q9WVN5 = target: T11, UniProt Q9WVN5
T11 sequence (whole entry): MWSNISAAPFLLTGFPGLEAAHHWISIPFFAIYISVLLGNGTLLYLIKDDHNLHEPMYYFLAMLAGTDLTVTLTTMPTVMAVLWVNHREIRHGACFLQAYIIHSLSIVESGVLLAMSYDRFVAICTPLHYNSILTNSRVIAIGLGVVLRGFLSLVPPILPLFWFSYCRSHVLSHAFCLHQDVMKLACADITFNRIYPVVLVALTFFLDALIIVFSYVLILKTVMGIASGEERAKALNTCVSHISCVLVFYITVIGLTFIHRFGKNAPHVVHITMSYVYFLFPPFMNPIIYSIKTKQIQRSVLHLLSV
Procedure, shortened: as §1

UniProt Q8VH18 = target: T12, UniProt Q8VH18
T12 sequence (whole entry): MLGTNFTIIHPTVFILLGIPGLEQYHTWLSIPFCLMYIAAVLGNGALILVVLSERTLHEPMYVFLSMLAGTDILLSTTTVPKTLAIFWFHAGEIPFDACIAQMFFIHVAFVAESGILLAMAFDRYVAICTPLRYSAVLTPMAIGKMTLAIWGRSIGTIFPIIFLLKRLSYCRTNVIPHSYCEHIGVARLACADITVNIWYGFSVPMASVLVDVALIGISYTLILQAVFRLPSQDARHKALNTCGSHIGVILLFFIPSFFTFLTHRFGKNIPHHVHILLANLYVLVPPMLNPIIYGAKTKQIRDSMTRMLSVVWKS
Procedure, shortened: as §1

UniProt Q920P1 = target: T13, UniProt Q920P1
T13 sequence (whole entry): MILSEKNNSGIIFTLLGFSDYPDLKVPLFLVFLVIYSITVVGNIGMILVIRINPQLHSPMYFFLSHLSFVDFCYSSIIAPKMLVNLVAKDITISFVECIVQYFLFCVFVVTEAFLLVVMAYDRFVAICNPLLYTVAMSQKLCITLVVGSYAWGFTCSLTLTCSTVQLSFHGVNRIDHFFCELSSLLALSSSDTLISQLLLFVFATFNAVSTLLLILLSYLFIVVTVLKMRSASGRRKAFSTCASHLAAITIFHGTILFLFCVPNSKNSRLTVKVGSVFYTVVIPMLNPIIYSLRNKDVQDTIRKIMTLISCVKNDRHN
Procedure, shortened: as §1

UniProt Q920P2 = target: T14, UniProt Q920P2
T14 sequence (whole entry): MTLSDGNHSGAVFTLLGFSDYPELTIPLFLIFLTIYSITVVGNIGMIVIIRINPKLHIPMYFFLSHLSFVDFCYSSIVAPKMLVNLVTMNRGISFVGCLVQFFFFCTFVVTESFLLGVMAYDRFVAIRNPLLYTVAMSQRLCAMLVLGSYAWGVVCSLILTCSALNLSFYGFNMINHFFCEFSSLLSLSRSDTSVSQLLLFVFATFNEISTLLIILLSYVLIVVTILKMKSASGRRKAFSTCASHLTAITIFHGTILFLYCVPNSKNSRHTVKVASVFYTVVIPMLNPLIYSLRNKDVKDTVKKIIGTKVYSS
Procedure, shortened: as §1

CCCCCC(=O)O
odorant receptor agonist call (UniProt Q8VGZ7): inactive | odorant receptor agonist call (UniProt Q8VH10): inactive | odorant receptor agonist call (UniProt Q8VH16): inactive | odorant receptor agonist call (UniProt Q8VH20): inactive | odorant receptor agonist call (UniProt Q8VH21): inactive | odorant receptor agonist call (UniProt Q924H8): inactive | odorant receptor agonist call (UniProt Q924X8): inactive | odorant receptor agonist call (UniProt Q99NH4): inactive | odorant receptor agonist call (UniProt Q9EPN9): inactive | odorant receptor agonist call (UniProt Q9R0K2): inactive | odorant receptor agonist call (UniProt Q9WU86): inactive | odorant receptor agonist call (UniProt Q9WU94): inactive | odorant receptor agonist call (UniProt Q9WVD7): inactive | odorant receptor agonist call (UniProt Q9WVD9): inactive | odorant receptor agonist call (UniProt Q9WVN5): active

C=CCc1ccc(O)c(OC)c1
odorant receptor agonist call (UniProt Q8VGZ7): inactive | odorant receptor agonist call (UniProt Q8VH16): inactive | odorant receptor agonist call (UniProt Q8VH18): inactive | odorant receptor agonist call (UniProt Q8VH20): inactive | odorant receptor agonist call (UniProt Q8VH21): inactive | odorant receptor agonist call (UniProt Q920P1): inactive | odorant receptor agonist call (UniProt Q920P2): active | odorant receptor agonist call (UniProt Q924H8): inactive | odorant receptor agonist call (UniProt Q9WU94): inactive

CC(=O)c1ccccc1
odorant receptor agonist call (UniProt Q8VGZ7): inactive | odorant receptor agonist call (UniProt Q8VH10): inactive | odorant receptor agonist call (UniProt Q8VH16): inactive | odorant receptor agonist call (UniProt Q8VH18): inactive | odorant receptor agonist call (UniProt Q8VH20): inactive | odorant receptor agonist call (UniProt Q8VH21): inactive | odorant receptor agonist call (UniProt Q924H8): inactive | odorant receptor agonist call (UniProt Q9EPN9): inactive | odorant receptor agonist call (UniProt Q9R0K2): inactive | odorant receptor agonist call (UniProt Q9WU86): active | odorant receptor agonist call (UniProt Q9WU94): inactive | odorant receptor agonist call (UniProt Q9WVD9): inactive | odorant receptor agonist call (UniProt Q9WVN5): inactive

COc1ccccc1O
odorant receptor agonist call (UniProt Q8VGZ7): inactive | odorant receptor agonist call (UniProt Q8VH16): inactive | odorant receptor agonist call (UniProt Q8VH20): inactive | odorant receptor agonist call (UniProt Q8VH21): inactive | odorant receptor agonist call (UniProt Q920P1): inactive | odorant receptor agonist call (UniProt Q920P2): inactive | odorant receptor agonist call (UniProt Q924H8): inactive

COc1cc(C)ccc1O
odorant receptor agonist call (UniProt Q920P1): inactive

C=CC(C)(O)CCC=C(C)C (configuration not stated)
odorant receptor agonist call (UniProt Q8VGZ7): inactive | odorant receptor agonist call (UniProt Q8VH16): inactive | odorant receptor agonist call (UniProt Q8VH20): inactive | odorant receptor agonist call (UniProt Q8VH21): inactive | odorant receptor agonist call (UniProt Q924H8): inactive

CC(C)CC(=O)O
odorant receptor agonist call (UniProt Q8VGZ7): inactive | odorant receptor agonist call (UniProt Q8VH16): inactive | odorant receptor agonist call (UniProt Q8VH18): inactive | odorant receptor agonist call (UniProt Q8VH20): inactive | odorant receptor agonist call (UniProt Q8VH21): inactive | odorant receptor agonist call (UniProt Q924H8): inactive | odorant receptor agonist call (UniProt Q9WU94): inactive

CC12CCC(CC1)C(C)(C)O2
odorant receptor agonist call (UniProt Q8VGZ7): inactive | odorant receptor agonist call (UniProt Q8VH16): inactive | odorant receptor agonist call (UniProt Q8VH20): inactive | odorant receptor agonist call (UniProt Q8VH21): inactive | odorant receptor agonist call (UniProt Q924H8): inactive
